Experimental data from the supplement of paper PMC8256030.
Values joined by “and” are separate entries in the source; they are usually repeats but may differ in a detail not shown here. Equal entries are not always repeated. Structures can show the parent of a compound that is named as a salt. Some of the results follow. Single values are uncertain here, since repeats match poorly.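 HEK293T cells were given each compound shortly before transfection with a reporter in which red mCherry is followed by the SARS-CoV-2 frameshift element and then GFP in the −1 frame, so GFP appears only after frameshifting.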

Each compound was assayed on HEK293T (assay: percent viability (nuclei count) relative to control; higher = more viable cells). Settings: 10 µM; 24 h.

Point of comparison: `CO[C@@H]1[C@@H](O[C@@H]2O[C@H](C)[C@@H](O[C@H]3C[C@@](C)(O)[C@@H](OC(=O)CC(C)C)[C@H](C)O3)[C@H](N(C)C)[C@H]2O)[C@@H](CC=O)C[C@@H](C)[C@@H](O)/C=C/C=C/C[C@@H](C)OC(=O)C[C@H]1OC(C)=O` [Josamycin], percent viability 85.2%. Against it:
- CC(=O)OCC(=O)[C@@]1(O)CC[C@H]2[C@@H]3CCC4=CC(=O)CC[C@]4(C)[C@H]3[C@@H](O)C[C@@]21C [Hydrocortisone 21-acetate] — higher, 133%
- CCN(CC)CC(=O)Nc1c(C)cccc1C(=O)OC [tolycaine] — lower, 65%
- CN1c2c(oc(=O)n(-c3ccccn3)c2=O)-c2ccccc2S1(=O)=O [droxicam] — higher, 231%
- CCOC(=O)C1=C(C)NC(C)=C(C(=O)OCC)C1c1ccccc1/C=C/C(=O)OC(C)(C)C [lacidipine] — higher, 216%
- Cn1cnc2c1c(=O)[nH]c(=O)n2C — higher, 368%
- CCOc1ccccc1OCC(O)CO (stereo not given) [guaietolin] — higher, 182%
- O=C(O)C1CC(O)CN1 (stereo not given) [Hydroxyproline] — higher, 300%
- CC(C)C(N)C(=O)O (stereo not given) — higher, 119%
- CCCCCOC(=O)c1ccc(N(C)C)cc1 [padimate] — higher, 278%
- O=S(=O)(O)c1ccc2[nH]c(-c3ccccc3)nc2c1 [ensulizole] — higher, 166%
- Nc1c(-c2cccc(C(F)(F)F)c2)nsc1C(=O)O [amflutizole] — higher, 250%
- Cc1c(Cl)cccc1Nc1ncccc1C(=O)O [clonixin] — higher, 197%
- Nc1nc(=O)c2c([nH]1)NC[C@@H](CNc1ccc(C(=O)N[C@@H](CCC(=O)O)C(=O)O)cc1)N2 [Tetrahydrofolate] — higher, 180%
- CC1=CC(=O)NS(=O)(=O)O1 — higher, 123%
- CN1[C@@H]2CC[C@H]1C[C@@H](OC(=O)c1c[nH]c3ccccc13)C2 — higher, 166%
- CC(C)NCC(O)c1ccc(NS(C)(=O)=O)cc1 (stereo not given) [Sotalol·HCl] — higher, 281%
- c1ccc([C@H]2CN3CCSC3=N2)cc1 [Levamisole] — higher, 212%
- COc1ccc2cc1Oc1ccc(cc1)C[C@H]1c3c(cc4c(c3Oc3cc5c(cc3OC)CCN(C)[C@@H]5C2)OCO4)CCN1C — lower, 13.2%
- Cc1nccnc1N1CCCCC1 — higher, 145%
- [O-][n+]1cccc(CO)c1 — higher, 255%
- CCOc1ccc(/N=C(\C)Nc2ccc(OCC)cc2)cc1 [phenacaine] — higher, 115%
- CNCCCC1c2ccccc2C=Cc2ccccc21 — higher, 331%
- CN1CCN(C2=Nc3ccccc3Sc3ccc(Cl)cc32)CC1 [clotiapine] — higher, 333%
- NC(=O)CC[C@H](N)C(=O)O [glutamine] — higher, 168%
- O=S(=O)(O)Oc1ccc(C(c2ccc(OS(=O)(=O)O)cc2)c2ccccn2)cc1 [picosulfate] — higher, 158%
- O=C(O)c1cc(=O)c2c(OCC(O)COc3cccc4oc(C(=O)O)cc(=O)c34)cccc2o1 [cromoglicic acid] — higher, 242%
- CC(=O)O[C@]1(C(C)=O)CC[C@H]2[C@@H]3C[C@H](C)C4=CC(=O)CC[C@]4(C)[C@H]3CC[C@@]21C — higher, 164%
- CC(S)C(=O)NCC(=O)O (stereo not given) [tiopronin] — lower, 42.1%
- Cc1cc2c(s1)Nc1ccccc1N=C2N1CCN(C)CC1 [Olanzapine] — higher, 152%
- CC[C@H](C)[C@@H]([C@@H](CC(=O)N1CCC[C@H]1[C@H](OC)[C@@H](C)C(=O)NCCc1ccccc1)OC)N(C)C(=O)[C@@H](NC(=O)[C@H](C(C)C)N(C)C)C(C)C [soblidotin] — lower, 21.3%
- CCC(=O)NS(=O)(=O)c1ccc(-c2c(-c3ccccc3)noc2C)cc1 [parecoxib] — higher, 192%
- O=C([O-])CN1CCN(CC(=O)[O-])CCN([C@H](CO)[C@H](O)CO)CCN(CC(=O)[O-])CC1.[Gd+3] (racemic) [gadobutrol] — higher, 439%
- O=C(CCCCCl)NNC(=O)N1Cc2ccccc2Oc2ccc(Cl)cc21 [pinadoline] — higher, 167%
- CCOC(=O)[C@H](CCc1ccccc1)N[C@H]1CCCN2CCC[C@@H](C(=O)O)N2C1=O [Inhibace] — higher, 200%
- COc1cc(N)c(Cl)cc1C(=O)N1CCN(Cc2ccc3c(c2)OCO3)CC1 [peralopride] — higher, 219%
- C#C[C@]1(O)CC[C@H]2[C@@H]3CCc4cc(O)ccc4[C@H]3CC[C@@]21C [ethinylestradiol] — lower, 33.3%
- CCC(=O)O[C@]1(C(=O)CCl)[C@@H](C)C[C@H]2[C@@H]3CCC4=CC(=O)C=C[C@]4(C)[C@@]3(F)[C@@H](O)C[C@@]21C [Clobetasol Propionate] — lower, 15%

For `CCCCCCCCCCCCCCCCOP(=O)([O-])OCC[N+](C)(C)C` [miltefosine], the percent viability was 250% and 324%.
`Nc1ncnc2c1ncn2[C@@H]1O[C@H](COP(=O)(O)O)[C@@H](O)[C@H]1O` [adenosine phosphate] was tested, and the percent viability was 198% and 178% and 195%.
